# The list shows a part of the results.
# Amino acid sequences for entries named in this document (tags omitted). A change or cut given only in a name is not applied to a line headed by its entry.
# UniProt P53567: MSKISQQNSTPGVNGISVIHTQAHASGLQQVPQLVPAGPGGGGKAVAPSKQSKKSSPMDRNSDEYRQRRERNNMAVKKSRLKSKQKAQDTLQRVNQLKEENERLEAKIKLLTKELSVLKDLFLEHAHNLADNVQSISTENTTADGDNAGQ
# UniProt P46527, whole entry, looked up: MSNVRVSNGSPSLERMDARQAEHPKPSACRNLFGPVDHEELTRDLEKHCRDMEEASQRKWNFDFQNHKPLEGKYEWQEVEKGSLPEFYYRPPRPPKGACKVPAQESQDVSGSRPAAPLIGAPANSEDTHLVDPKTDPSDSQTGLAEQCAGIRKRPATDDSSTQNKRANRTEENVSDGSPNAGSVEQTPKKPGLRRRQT
# UniProt O75956: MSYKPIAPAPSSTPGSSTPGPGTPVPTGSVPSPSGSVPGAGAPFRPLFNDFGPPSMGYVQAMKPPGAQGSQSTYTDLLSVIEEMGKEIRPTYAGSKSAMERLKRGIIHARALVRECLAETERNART
# UniProt O15519, whole entry, looked up: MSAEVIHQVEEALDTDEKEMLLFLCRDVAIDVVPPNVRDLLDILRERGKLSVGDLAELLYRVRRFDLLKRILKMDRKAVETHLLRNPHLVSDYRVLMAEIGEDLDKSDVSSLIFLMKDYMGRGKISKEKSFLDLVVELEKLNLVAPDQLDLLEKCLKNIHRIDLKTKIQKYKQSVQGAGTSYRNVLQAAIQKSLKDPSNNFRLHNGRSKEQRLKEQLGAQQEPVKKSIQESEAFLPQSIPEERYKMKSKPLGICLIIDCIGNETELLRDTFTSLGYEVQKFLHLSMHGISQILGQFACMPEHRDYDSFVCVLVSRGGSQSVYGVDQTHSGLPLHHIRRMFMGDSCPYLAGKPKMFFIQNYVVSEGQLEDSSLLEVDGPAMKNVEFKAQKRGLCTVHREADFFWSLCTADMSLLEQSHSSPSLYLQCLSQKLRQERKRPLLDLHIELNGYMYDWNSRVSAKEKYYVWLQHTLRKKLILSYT
# UniProt Q9Y592: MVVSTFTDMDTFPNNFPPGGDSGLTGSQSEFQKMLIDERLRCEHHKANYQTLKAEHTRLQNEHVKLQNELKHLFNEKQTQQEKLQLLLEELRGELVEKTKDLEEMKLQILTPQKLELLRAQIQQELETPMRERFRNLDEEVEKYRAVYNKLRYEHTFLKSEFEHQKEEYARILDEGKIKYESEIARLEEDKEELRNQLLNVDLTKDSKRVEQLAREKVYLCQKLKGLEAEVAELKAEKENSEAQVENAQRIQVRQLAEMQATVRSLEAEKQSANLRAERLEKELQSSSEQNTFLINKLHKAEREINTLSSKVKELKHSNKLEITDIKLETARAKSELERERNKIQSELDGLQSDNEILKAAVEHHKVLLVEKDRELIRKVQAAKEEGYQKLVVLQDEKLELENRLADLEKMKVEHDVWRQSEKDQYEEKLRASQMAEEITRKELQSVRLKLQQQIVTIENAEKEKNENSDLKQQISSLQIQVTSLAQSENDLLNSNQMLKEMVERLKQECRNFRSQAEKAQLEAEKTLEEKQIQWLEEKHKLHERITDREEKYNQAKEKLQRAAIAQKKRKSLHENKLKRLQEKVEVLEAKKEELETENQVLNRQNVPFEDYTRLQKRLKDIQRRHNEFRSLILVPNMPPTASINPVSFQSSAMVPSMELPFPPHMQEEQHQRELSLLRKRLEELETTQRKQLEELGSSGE
# UniProt O94986: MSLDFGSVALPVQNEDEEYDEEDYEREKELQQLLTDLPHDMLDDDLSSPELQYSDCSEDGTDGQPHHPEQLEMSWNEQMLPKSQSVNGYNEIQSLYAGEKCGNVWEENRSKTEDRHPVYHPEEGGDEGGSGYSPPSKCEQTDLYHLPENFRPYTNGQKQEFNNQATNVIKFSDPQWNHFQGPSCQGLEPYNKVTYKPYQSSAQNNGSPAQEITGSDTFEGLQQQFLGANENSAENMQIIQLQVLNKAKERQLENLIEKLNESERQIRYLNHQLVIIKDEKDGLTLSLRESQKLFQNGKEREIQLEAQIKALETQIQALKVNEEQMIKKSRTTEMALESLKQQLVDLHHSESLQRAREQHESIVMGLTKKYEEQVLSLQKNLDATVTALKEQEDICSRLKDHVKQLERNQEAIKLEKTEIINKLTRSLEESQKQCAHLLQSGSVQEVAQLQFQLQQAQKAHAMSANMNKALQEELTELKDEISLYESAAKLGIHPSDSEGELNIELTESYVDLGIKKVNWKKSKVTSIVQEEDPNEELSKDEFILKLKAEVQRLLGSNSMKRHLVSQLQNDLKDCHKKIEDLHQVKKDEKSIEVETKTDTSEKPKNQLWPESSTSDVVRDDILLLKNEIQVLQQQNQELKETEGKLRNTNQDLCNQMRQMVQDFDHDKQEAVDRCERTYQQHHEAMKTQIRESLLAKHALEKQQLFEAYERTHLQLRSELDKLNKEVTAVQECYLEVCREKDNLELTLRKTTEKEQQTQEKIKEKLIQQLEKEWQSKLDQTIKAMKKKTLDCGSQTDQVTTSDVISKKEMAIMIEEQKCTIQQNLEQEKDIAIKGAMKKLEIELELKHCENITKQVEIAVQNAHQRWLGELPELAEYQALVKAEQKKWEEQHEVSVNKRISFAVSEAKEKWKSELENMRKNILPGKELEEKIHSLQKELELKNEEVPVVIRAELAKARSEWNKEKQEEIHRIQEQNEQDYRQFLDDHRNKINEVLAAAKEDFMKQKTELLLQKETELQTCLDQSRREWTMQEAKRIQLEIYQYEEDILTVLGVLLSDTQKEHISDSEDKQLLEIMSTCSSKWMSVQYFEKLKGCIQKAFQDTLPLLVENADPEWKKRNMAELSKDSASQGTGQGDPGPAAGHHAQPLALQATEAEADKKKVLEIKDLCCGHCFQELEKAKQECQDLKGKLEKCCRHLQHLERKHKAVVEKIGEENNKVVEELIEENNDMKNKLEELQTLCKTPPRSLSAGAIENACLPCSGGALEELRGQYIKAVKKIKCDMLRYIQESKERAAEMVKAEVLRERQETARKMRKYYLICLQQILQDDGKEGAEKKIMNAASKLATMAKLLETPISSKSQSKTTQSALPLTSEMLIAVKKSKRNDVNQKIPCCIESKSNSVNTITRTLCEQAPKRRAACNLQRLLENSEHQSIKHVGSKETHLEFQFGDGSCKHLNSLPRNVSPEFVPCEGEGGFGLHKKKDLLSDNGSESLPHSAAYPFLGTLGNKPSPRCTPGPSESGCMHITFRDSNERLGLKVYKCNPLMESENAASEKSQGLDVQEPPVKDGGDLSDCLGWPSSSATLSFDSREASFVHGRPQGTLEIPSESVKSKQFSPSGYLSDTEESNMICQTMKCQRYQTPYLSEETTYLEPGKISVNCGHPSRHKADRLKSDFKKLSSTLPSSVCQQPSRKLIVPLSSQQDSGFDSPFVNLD
# UniProt Q9BU64: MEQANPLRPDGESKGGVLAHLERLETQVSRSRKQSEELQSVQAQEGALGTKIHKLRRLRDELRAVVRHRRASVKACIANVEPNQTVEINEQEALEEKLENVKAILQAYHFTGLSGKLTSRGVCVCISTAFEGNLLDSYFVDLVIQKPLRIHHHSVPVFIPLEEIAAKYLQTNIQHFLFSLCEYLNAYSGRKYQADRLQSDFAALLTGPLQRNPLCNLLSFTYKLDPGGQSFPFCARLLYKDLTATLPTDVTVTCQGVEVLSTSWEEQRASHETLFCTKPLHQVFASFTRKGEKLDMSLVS
# UniProt Q9UQ88: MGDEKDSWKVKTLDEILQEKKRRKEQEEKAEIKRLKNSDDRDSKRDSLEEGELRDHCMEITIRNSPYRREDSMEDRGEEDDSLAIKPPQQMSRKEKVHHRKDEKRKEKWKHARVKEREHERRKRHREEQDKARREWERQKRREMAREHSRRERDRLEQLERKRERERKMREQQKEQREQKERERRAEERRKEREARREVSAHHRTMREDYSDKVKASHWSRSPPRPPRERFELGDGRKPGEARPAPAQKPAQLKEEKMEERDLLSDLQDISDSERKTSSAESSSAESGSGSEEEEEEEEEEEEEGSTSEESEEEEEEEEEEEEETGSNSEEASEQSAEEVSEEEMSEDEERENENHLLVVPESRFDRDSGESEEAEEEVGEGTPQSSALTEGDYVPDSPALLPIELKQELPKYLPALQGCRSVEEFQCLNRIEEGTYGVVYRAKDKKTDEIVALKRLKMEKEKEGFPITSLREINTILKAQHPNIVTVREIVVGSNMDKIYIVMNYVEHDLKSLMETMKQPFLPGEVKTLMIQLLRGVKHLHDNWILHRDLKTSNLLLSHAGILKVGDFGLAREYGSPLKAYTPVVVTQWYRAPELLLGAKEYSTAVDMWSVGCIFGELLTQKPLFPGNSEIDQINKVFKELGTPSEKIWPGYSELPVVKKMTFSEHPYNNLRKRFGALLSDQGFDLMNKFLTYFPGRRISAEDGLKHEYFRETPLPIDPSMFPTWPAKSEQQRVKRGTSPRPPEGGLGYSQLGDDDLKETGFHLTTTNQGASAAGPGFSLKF
# UniProt P17676: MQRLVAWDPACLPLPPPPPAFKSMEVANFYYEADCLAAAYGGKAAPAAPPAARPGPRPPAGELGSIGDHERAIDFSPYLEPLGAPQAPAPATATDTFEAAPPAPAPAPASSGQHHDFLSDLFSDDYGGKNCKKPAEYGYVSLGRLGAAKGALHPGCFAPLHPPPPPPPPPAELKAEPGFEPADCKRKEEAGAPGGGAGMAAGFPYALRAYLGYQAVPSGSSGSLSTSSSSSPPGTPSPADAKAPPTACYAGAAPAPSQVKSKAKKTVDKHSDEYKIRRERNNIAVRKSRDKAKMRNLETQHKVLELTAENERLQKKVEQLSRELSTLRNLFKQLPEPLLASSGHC
# UniProt Q53HL2: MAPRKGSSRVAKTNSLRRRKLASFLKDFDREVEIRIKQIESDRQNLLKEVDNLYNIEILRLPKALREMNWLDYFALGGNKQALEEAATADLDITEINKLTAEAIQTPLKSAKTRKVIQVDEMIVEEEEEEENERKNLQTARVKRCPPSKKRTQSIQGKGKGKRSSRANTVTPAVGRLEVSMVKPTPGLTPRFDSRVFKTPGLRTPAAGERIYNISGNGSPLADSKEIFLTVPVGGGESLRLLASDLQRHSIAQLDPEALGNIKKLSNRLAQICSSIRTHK
# UniProt Q9H211: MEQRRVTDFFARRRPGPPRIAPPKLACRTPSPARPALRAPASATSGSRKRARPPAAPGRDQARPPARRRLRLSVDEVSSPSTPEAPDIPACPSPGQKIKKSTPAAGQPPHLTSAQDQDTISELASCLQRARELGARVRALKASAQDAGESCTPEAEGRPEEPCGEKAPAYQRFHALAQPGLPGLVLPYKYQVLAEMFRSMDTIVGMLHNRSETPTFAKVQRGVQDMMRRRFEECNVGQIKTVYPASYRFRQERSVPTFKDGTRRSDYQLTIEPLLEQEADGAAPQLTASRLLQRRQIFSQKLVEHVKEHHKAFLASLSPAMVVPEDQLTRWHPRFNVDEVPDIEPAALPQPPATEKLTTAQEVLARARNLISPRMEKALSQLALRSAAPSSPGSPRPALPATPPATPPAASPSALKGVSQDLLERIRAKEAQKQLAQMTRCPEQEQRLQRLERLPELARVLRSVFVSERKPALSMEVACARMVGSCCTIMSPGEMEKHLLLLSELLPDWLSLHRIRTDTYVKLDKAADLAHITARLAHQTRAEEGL
# Key:
# Assay in all cases: log2 fold change, soluble protein after heating vs DMSO (PISA); higher = thermal stabilisation; K562 lysate, 10 uM; active = over 0.2 and 3.5 SD of the protein, either way, in both replicates (recomputed)
# alvocidib = compound: CN1CC[C@H](c2c(O)cc(O)c3c(=O)cc(-c4ccccc4Cl)oc23)[C@H](O)C1 [alvocidib]
# Procedure, shortened: (§1)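 A 30 min treatment with 10 μM compound was applied to crude K562 extract at 1 mg/mL protein in PBS pH 7.4 with 1 mM MgCl2. Heating for 3 min spanned 48°C-58°C, after which aliquots were pooled, adjusted to 0.5% NP-40 at 4°C and spun at 21,000xg for 90 min. TMTpro 16plex LC-MS/MS of the supernatant, with channel sums equalised, gave values recorded as log-two fold change in thermal stability against solvent controls, from duplicates.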
# Tubastatin A = compound: CN1CCc2c(c3ccccc3n2Cc2ccc(C(=O)NO)cc2)C1 [Tubastatin A]
# Procedure, shortened: as §1
# [1] = compound: COc1cc2nc(-c3cc(F)ccc3O)nc(N[C@@H]3CNC[C@H]3C(C)(C)O)c2cc1OC
# Procedure, shortened: as §1
# lapatinib = compound: CS(=O)(=O)CCNCc1ccc(-c2ccc3ncnc(Nc4ccc(OCc5cccc(F)c5)c(Cl)c4)c3c2)o1 [lapatinib]
# Procedure, shortened: as §1
# pictilisib = compound: CS(=O)(=O)N1CCN(Cc2cc3nc(-c4cccc5[nH]ncc45)nc(N4CCOCC4)c3s2)CC1 [pictilisib]
# Procedure, shortened: as §1
# crizotinib = compound: C[C@@H](Oc1cc(-c2cnn(C3CCNCC3)c2)cnc1N)c1c(Cl)ccc(F)c1Cl [crizotinib]
# Procedure, shortened: as §1
# [2] = compound: C[C@H](C1=CC=C(C=C1)C(=O)NC2=C3C=CNC3=NC=C2)N
# Procedure, shortened: as §1
# gandotinib = compound: Cc1cc(Nc2cc(CN3CCOCC3)c3nc(C)c(Cc4ccc(Cl)cc4F)n3n2)n[nH]1 [gandotinib]
# Procedure, shortened: as §1
# doramapimod = compound: Cc1ccc(-n2nc(C(C)(C)C)cc2NC(=O)Nc2ccc(OCCN3CCOCC3)c3ccccc23)cc1 [doramapimod]
# Procedure, shortened: as §1
# bafetinib = compound: Cc1ccc(NC(=O)c2ccc(CN3CC[C@H](N(C)C)C3)c(C(F)(F)F)c2)cc1Nc1nccc(-c2cncnc2)n1 [bafetinib]
# Procedure, shortened: as §1
# [3] = compound: Cc1cccc(CC(=O)N2CCc3c2ccc(-c2cn(C)c4ncnc(N)c24)c3F)n1
# Procedure, shortened: as §1
# [4] = compound: CNC(=O)C1=CC=CC=C1NC2=NC(=NC=C2Cl)NC3=C(C=C(C=C3)N4CCOCC4)OC
# Procedure, shortened: as §1
# defactinib = compound: CNC(=O)c1ccc(Nc2ncc(C(F)(F)F)c(NCc3nccnc3N(C)S(C)(=O)=O)n2)cc1 [defactinib]
# Procedure, shortened: as §1
# [5] = compound: CNc1nc(-c2ccc3c(N)n[nH]c3c2)cc(N2C[C@@H](C(=O)NC3CCCCC3)CC[C@H]2C)n1
# Procedure, shortened: as §1
# encorafenib = compound: COC(=O)N[C@@H](C)CNc1nccc(-c2cn(C(C)C)nc2-c2cc(Cl)cc(NS(C)(=O)=O)c2F)n1 [encorafenib]
# Procedure, shortened: as §1
# [6] = compound: COC(=O)[C@H](CCSC)NC(=O)C1=C(C=C(C=C1)NC[C@H](CS)N)C2=CC=CC=C2
# Procedure, shortened: as §1
# duvelisib = compound: C[C@H](Nc1ncnc2nc[nH]c12)c1cc2cccc(Cl)c2c(=O)n1-c1ccccc1 [duvelisib]
# Procedure, shortened: as §1
# tozasertib = compound: Cc1cc(Nc2cc(N3CCN(C)CC3)nc(Sc3ccc(NC(=O)C4CC4)cc3)n2)n[nH]1 [tozasertib]
# Procedure, shortened: as §1
# alisertib = compound: COc1cc(Nc2ncc3c(n2)-c2ccc(Cl)cc2C(c2c(F)cccc2OC)=NC3)ccc1C(=O)O [alisertib]
# Procedure, shortened: as §1
# gefitinib = compound: COc1cc2ncnc(Nc3ccc(F)c(Cl)c3)c2cc1OCCCN1CCOCC1 [gefitinib]
# Procedure, shortened: as §1
Target,log2 fold change (alvocidib),log2 fold change (Tubastatin A),log2 fold change [1],log2 fold change (lapatinib),log2 fold change (pictilisib),log2 fold change (crizotinib),log2 fold change [2],log2 fold change (gandotinib),log2 fold change (doramapimod),log2 fold change (bafetinib),log2 fold change [3],log2 fold change [4],log2 fold change (defactinib),log2 fold change [5],log2 fold change (encorafenib),log2 fold change [6],log2 fold change (duvelisib),log2 fold change (tozasertib),log2 fold change (alisertib),log2 fold change (gefitinib)
CEBPG (UniProt P53567),inactive: 0.117,inactive: -0.049,inactive: 0.033,inactive: -0.164,inactive: -0.149,inactive: -0.056,inactive: -0.013,inactive: -0.002,inactive: 0.007,inactive: -0.017,inactive: 0.035,–,–,–,–,–,–,–,–,–
CDKN1B (UniProt P46527),inactive: 0.057,inactive: 0.048,inactive: 0.023,inactive: 0.083,inactive: -0.043,inactive: 0.139,inactive: 0.047,inactive: -0.161,inactive: -0.04,inactive: -0.106,inactive: -0.059,inactive: 0.035,inactive: 0.067,inactive: -0.045,inactive: 0.03,inactive: -0.043,inactive: -0.06,inactive: -0.005,–,–
CDK2AP2 (UniProt O75956),inactive: -0.031,–,inactive: -0.01,inactive: 0.061,inactive: -0.113,inactive: 0.198,inactive: -0.048,inactive: 0.086,inactive: 0.072,inactive: 0.022,inactive: 0.001,inactive: 0.02,inactive: -0.06,inactive: 0.161,–,–,inactive: -0.056,–,inactive: 0.022,inactive: -0.113
CDC37 (UniProt K7EKQ2),inactive: -0.084,inactive: -0.01,inactive: -0.042,inactive: -0.082,–,inactive: 0.092,inactive: 0.032,inactive: 0.105,inactive: -0.158,–,inactive: -0.322,inactive: -0.04,inactive: 0,inactive: 0.058,–,–,inactive: 0.025,–,inactive: 0.31,inactive: -0.074
CDKL5 (UniProt O76039),active: 1.14,–,inactive: 0.058,inactive: -0.207,–,inactive: -0.167,inactive: -0.128,inactive: 0.537,inactive: -0.057,–,inactive: -0.073,–,inactive: 0.55,inactive: -0.052,inactive: -0.038,inactive: -0.116,inactive: 0.073,inactive: 0.024,–,–
CEP170B (UniProt Q9Y4F5),inactive: -0.024,–,inactive: -0.099,inactive: 0.021,–,inactive: -0.117,inactive: -0.111,inactive: -0.001,inactive: 0.041,–,inactive: 0.078,–,inactive: -0.005,inactive: 0.132,inactive: 0.027,inactive: -0.068,inactive: -0.077,inactive: 0.022,–,–
CFLAR (UniProt O15519),inactive: -0.094,inactive: -0.012,–,–,–,inactive: -0.023,inactive: 0,inactive: 0.033,inactive: 0.017,–,inactive: -0.113,–,inactive: -0.003,inactive: 0.029,inactive: 0.079,inactive: -0.12,inactive: -0.217,inactive: 0.003,–,–
CEP57L1 (UniProt Q8IYX8),inactive: -0.024,inactive: -0.143,–,–,inactive: 0.076,inactive: 0.056,inactive: -0.039,inactive: -0.022,inactive: 0.05,inactive: -0.184,inactive: 0.073,inactive: 0.141,–,inactive: -0.09,inactive: 0.118,inactive: -0.023,inactive: -0.004,inactive: -0.07,inactive: -0.003,inactive: -0.038
CEP83 (UniProt Q9Y592),inactive: 0.007,inactive: 0.076,inactive: 0.074,inactive: -0.089,–,inactive: -0.047,inactive: -0.023,inactive: 0.005,inactive: 0.033,–,inactive: -0.065,inactive: 0.012,inactive: 0.069,–,–,–,–,–,inactive: 0,inactive: -0.007
CEP152 (UniProt O94986),inactive: -0.077,inactive: -0.061,–,–,inactive: -0.013,inactive: -0.22,inactive: -0.089,inactive: 0.006,inactive: -0.057,inactive: -0.071,inactive: 0.058,inactive: 0.019,inactive: 0.019,inactive: 0.182,inactive: -0.064,inactive: 0.04,inactive: -0.017,inactive: -0.114,inactive: -0.007,inactive: 0.008
CENPO (UniProt Q9BU64),inactive: -0.014,–,–,–,–,–,inactive: -0.033,inactive: -0.392,–,–,inactive: 0.047,inactive: 0.112,–,–,–,–,–,–,inactive: -0.066,inactive: 0.161
CEP128 (UniProt Q6ZU80),inactive: -0.294,inactive: 0.565,–,–,inactive: -0.123,–,active: -1.2,inactive: 0.331,–,inactive: -0.043,inactive: 0.297,–,inactive: -0.052,inactive: -0.037,inactive: 0.064,inactive: 0.031,inactive: -0.022,inactive: 0.027,–,–
CEP295 isoform 3 (UniProt Q9C0D2),inactive: -0.039,inactive: -0.099,inactive: -0.016,inactive: -0.038,inactive: 0.057,inactive: 0.004,active: -0.365,inactive: 0.058,inactive: 0.059,inactive: 0.031,inactive: 0.072,inactive: -0.029,–,–,inactive: -0.154,inactive: 0.149,–,inactive: 0.111,inactive: 0.018,inactive: -0.041
CDK11A (UniProt Q9UQ88),inactive: 0.077,inactive: -0.172,inactive: -0.037,inactive: 0.104,inactive: -0.02,inactive: 0.092,inactive: 0.049,inactive: 0.122,inactive: -0.072,inactive: -0.033,inactive: -0.093,inactive: -0.011,–,inactive: 0.023,–,–,inactive: -0.003,–,inactive: -0.023,inactive: 0
CEBPB (UniProt P17676),inactive: -0.064,inactive: -0.223,–,–,inactive: 0.154,inactive: -0.003,inactive: -0.098,inactive: 0.143,inactive: 0.091,inactive: -0.057,inactive: 0.067,inactive: 0.155,inactive: 0.009,inactive: 0.133,inactive: 0.101,inactive: -0.152,inactive: -0.035,inactive: 0.028,–,–
CENPC (UniProt Q03188),inactive: 0,inactive: 0.1,–,–,–,–,inactive: 0.003,inactive: -0.066,–,–,inactive: 0.015,inactive: 0.054,–,inactive: -0.002,inactive: -0.078,inactive: -0.115,inactive: 0.035,inactive: 0.007,–,–
CD99 (UniProt P14209),inactive: 0.038,inactive: 0.031,inactive: 0.068,inactive: 0.019,–,inactive: -0.077,inactive: 0.051,inactive: -0.038,inactive: 0.031,–,inactive: 0.007,inactive: 0.066,inactive: 0.21,inactive: -0.265,–,–,inactive: 0.102,–,inactive: 0.018,inactive: -0.083
CDCA8 (UniProt Q53HL2),inactive: 0.091,–,–,–,inactive: 0.072,–,inactive: 0.319,inactive: -0.031,–,inactive: -0.217,inactive: -0.128,inactive: 0.054,inactive: 0.144,inactive: -0.061,inactive: 0.003,inactive: -0.044,inactive: 0.031,inactive: -0.047,inactive: 0.034,inactive: 0.04
CDT1 (UniProt Q9H211),inactive: 0.016,inactive: -0.072,–,–,inactive: -0.01,inactive: -0.079,inactive: -0.086,inactive: -0.043,inactive: -0.016,inactive: 0.116,inactive: 0.042,inactive: 0.044,–,inactive: 0.028,inactive: 0.112,inactive: -0.055,inactive: 0.035,inactive: -0.067,–,–
CFAP97 (UniProt Q9P2B7),inactive: -0.016,inactive: -0.148,–,–,–,inactive: 0.046,inactive: 0.192,inactive: -0.422,inactive: 0.124,–,inactive: 0,inactive: 0.025,inactive: 0.272,inactive: 0.086,–,–,inactive: -0.155,–,–,–

# Single records, as listed above. Values in the order: log2 fold change (alvocidib)	log2 fold change (Tubastatin A)	log2 fold change [1]	log2 fold change (lapatinib)	log2 fold change (pictilisib)	log2 fold change (crizotinib)	log2 fold change [2]	log2 fold change (gandotinib)	log2 fold change (doramapimod)	log2 fold change (bafetinib)	log2 fold change [3]	log2 fold change [4]	log2 fold change (defactinib)	log2 fold change [5]	log2 fold change (encorafenib)	log2 fold change [6]	log2 fold change (duvelisib)	log2 fold change (tozasertib)	log2 fold change (alisertib)	log2 fold change (gefitinib)
# CDK2AP2 (UniProt O75956) in the list: inactive: -0.031	–	inactive: -0.01	inactive: 0.061	inactive: -0.113	inactive: 0.198	inactive: -0.048	inactive: 0.086	inactive: 0.072	inactive: 0.022	inactive: 0.001	inactive: 0.02	inactive: -0.06	inactive: 0.161	–	–	inactive: -0.056	–	inactive: 0.022	inactive: -0.113
# CEP295 isoform 3 (UniProt Q9C0D2) in the list: inactive: -0.039	inactive: -0.099	inactive: -0.016	inactive: -0.038	inactive: 0.057	inactive: 0.004	active: -0.365	inactive: 0.058	inactive: 0.059	inactive: 0.031	inactive: 0.072	inactive: -0.029	–	–	inactive: -0.154	inactive: 0.149	–	inactive: 0.111	inactive: 0.018	inactive: -0.041

# Reference: the supplement of paper PMC10849652
